1 substance from publication doi:10.1101/2022.12.08.519265 can be followed below.

By UniProt entry, the sequences of proteins in these tests, tags left out.
UniProt Q9Y572: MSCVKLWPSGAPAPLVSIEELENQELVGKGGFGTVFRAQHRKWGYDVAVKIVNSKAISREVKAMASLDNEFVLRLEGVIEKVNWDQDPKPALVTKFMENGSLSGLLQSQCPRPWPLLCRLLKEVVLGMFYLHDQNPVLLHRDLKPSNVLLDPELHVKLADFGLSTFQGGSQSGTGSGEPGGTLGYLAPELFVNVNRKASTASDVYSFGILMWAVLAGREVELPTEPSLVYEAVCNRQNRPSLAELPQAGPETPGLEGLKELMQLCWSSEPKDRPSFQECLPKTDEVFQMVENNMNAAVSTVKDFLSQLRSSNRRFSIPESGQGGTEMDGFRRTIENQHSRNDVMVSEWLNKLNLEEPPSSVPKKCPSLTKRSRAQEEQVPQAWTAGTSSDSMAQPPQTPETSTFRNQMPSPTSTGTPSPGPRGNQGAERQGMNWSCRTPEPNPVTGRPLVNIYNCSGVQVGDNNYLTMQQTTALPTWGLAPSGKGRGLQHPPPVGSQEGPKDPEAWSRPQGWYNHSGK
UniProt Q13546: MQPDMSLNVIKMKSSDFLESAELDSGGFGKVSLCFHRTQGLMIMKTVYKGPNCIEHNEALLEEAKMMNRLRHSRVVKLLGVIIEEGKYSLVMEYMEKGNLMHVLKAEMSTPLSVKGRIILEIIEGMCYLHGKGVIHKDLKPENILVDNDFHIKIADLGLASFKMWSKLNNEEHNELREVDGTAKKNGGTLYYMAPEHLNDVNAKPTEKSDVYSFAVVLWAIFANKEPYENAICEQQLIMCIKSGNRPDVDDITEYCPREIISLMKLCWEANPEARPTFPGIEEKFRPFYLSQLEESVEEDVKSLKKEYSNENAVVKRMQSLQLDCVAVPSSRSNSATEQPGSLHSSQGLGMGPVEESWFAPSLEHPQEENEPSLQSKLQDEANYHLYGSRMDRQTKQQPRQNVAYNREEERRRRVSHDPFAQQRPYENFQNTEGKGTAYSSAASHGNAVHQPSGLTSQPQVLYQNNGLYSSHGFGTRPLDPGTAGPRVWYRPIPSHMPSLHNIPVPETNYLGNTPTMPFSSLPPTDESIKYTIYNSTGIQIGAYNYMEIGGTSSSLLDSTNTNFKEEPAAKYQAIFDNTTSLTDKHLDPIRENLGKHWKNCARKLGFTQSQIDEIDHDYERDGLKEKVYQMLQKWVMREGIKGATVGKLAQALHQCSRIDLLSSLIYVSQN

For this assay, the target named is Strep-tagged RIPK3 wild-type (WT) (UniProt Q9Y572). Put plainly: co-IP.

Results are given in words; binding and its absence hold for the method and conditions named. In cells and extracts the contact can be indirect. Some binding calls cover weakened binding; strength is not graded here.

With “phosphorylated RIPK1 S166 (from UniProt Q13546 1-671)”, the binding result is reported as “binds”.
